Experimental data as given in the supplement of paper PMC10849652.
Some of the results follow.

Amino acid sequences for entries named in this document (tags omitted). A change or cut given only in a name is not applied to a line headed by its entry.
UniProt Q12933: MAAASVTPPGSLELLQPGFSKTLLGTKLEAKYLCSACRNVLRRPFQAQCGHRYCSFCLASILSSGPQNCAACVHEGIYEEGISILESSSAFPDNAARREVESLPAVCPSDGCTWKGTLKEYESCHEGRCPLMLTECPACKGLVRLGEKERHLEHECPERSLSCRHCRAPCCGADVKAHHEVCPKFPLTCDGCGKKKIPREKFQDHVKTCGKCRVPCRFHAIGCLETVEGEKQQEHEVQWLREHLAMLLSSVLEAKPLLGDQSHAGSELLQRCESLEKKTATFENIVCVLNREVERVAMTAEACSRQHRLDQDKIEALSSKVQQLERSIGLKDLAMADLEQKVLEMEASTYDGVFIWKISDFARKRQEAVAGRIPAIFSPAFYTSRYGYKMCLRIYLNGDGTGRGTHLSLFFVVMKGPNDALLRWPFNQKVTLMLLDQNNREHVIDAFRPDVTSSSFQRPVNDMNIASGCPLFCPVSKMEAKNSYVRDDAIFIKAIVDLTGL
UniProt Q9Y4K3: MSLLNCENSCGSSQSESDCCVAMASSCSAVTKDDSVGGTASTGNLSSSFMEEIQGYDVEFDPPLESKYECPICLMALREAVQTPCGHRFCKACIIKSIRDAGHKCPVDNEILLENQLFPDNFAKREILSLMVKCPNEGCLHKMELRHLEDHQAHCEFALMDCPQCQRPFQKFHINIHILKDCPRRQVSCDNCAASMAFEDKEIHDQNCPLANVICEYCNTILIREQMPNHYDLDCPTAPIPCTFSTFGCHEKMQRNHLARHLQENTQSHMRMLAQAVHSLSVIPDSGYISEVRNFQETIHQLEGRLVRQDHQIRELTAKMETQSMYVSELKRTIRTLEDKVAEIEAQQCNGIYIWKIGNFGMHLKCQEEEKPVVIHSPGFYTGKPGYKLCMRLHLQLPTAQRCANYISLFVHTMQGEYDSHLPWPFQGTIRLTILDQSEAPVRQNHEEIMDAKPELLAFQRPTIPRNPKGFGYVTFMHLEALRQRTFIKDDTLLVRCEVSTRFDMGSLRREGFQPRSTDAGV
UniProt Q32P41: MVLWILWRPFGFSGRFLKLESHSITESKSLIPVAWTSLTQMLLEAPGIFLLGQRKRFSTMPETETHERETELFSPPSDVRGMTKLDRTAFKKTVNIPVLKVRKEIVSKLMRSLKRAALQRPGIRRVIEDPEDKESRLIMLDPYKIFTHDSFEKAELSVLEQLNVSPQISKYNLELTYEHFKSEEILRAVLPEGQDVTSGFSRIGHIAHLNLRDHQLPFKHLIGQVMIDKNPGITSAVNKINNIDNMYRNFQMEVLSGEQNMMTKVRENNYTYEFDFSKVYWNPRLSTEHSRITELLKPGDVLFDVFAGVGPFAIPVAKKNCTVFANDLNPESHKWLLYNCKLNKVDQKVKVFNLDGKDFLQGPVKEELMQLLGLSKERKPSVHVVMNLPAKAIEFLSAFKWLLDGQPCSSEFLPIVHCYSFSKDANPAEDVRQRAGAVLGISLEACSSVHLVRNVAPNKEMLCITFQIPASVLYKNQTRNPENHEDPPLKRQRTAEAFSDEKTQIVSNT
UniProt P36406: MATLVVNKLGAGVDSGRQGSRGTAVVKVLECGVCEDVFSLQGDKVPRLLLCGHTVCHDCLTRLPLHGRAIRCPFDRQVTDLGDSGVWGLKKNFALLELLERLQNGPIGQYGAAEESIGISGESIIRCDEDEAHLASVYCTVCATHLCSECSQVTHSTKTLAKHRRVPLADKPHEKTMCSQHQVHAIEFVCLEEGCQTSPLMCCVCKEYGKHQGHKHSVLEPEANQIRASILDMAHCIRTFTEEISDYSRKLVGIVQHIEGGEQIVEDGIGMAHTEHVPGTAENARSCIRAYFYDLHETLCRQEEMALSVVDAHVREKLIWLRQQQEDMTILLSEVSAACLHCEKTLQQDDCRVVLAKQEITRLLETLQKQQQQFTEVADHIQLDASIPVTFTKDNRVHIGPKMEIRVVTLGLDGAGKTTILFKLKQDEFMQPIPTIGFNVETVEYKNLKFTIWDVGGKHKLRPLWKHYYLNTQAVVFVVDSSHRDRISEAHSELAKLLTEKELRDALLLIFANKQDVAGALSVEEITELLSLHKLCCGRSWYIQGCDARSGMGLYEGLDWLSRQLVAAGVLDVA
UniProt Q15629: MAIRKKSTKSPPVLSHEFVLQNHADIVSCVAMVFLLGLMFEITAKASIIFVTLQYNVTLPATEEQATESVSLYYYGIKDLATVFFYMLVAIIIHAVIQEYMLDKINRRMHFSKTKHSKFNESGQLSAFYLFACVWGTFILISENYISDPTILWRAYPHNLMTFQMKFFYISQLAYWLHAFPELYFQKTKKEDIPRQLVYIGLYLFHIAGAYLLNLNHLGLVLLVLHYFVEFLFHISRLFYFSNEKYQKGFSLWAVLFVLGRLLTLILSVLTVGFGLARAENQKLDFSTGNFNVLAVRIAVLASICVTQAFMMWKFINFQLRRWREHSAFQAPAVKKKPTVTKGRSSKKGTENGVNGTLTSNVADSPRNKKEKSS
UniProt Q86SZ2: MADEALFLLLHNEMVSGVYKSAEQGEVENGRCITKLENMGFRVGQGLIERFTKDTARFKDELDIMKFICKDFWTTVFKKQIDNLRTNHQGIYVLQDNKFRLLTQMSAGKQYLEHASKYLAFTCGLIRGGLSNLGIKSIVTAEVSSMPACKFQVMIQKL
UniProt Q53H54: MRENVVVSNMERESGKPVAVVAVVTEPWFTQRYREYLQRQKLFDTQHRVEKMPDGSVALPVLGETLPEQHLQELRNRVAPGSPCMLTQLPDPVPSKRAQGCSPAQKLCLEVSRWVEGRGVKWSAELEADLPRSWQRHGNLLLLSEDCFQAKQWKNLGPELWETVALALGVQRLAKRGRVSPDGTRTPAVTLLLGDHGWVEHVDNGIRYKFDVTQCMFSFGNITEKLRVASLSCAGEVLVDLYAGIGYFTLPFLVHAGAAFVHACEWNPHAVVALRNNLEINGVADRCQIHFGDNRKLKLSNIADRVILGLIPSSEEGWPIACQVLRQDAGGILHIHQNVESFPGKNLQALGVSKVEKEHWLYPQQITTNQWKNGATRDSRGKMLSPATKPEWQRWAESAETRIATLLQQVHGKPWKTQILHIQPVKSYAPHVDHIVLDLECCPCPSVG
UniProt Q9BUZ4: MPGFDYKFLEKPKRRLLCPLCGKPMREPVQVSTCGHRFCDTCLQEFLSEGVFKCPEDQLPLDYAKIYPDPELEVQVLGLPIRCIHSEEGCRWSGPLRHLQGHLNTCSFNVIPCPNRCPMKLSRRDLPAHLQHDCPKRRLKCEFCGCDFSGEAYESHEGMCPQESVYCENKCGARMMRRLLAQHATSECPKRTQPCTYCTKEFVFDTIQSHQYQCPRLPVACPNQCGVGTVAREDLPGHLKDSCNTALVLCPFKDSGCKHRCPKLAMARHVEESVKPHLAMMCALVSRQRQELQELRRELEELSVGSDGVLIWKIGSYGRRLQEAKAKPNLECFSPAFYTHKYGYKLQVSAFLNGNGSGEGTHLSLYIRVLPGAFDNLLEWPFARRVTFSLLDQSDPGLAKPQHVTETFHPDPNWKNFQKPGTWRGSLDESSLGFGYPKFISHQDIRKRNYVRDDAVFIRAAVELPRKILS
UniProt Q7L0Y3: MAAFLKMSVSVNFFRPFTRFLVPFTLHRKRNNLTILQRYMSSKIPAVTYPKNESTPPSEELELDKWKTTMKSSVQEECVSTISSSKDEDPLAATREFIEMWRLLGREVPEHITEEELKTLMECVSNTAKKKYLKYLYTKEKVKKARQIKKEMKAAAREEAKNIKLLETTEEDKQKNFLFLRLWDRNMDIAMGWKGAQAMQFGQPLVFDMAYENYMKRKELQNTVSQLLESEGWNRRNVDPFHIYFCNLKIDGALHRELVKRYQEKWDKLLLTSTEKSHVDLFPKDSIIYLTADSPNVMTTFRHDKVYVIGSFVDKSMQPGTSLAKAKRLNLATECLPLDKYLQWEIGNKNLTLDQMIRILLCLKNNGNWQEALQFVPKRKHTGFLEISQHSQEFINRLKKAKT
UniProt P43897: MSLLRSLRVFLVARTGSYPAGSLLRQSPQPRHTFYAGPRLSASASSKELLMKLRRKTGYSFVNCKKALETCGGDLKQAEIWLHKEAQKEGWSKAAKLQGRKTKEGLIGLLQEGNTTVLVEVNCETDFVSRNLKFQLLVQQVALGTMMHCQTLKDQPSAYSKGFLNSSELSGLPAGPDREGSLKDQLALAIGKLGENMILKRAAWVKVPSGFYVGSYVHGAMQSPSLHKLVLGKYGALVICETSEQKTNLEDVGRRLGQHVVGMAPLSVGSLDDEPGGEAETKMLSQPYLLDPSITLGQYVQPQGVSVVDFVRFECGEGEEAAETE
UniProt Q9NUP7: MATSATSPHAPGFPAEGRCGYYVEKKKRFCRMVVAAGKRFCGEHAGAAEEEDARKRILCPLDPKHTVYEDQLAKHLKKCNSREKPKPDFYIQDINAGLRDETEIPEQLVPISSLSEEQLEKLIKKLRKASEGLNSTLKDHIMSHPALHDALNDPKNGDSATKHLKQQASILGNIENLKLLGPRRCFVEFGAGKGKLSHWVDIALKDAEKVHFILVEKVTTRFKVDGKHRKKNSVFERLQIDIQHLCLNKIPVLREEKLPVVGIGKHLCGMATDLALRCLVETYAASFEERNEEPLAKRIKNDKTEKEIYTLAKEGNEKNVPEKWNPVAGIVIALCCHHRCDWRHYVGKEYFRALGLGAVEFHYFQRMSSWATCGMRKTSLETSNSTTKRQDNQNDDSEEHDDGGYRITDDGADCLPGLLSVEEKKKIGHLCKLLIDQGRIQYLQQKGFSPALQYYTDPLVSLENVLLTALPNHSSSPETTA
UniProt Q12815: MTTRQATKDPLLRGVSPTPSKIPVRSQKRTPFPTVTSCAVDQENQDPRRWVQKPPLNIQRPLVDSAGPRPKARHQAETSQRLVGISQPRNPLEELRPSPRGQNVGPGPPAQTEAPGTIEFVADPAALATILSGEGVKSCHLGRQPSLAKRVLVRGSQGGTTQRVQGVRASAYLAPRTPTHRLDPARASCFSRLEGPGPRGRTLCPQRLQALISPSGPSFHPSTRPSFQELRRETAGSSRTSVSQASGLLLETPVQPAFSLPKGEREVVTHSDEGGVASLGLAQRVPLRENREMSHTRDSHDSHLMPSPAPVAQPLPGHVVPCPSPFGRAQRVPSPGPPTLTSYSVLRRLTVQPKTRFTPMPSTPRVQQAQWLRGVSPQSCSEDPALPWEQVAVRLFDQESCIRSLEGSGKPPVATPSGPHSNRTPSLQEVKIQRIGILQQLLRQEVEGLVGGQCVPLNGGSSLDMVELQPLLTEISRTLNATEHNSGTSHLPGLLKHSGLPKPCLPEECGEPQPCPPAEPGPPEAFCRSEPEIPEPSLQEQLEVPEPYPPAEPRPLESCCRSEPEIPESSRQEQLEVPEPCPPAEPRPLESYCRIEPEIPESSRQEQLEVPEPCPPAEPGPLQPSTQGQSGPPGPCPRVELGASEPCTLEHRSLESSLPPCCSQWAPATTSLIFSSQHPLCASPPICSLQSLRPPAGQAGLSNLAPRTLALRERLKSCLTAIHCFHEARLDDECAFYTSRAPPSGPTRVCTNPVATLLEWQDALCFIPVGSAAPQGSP
UniProt Q14258, whole entry, looked up: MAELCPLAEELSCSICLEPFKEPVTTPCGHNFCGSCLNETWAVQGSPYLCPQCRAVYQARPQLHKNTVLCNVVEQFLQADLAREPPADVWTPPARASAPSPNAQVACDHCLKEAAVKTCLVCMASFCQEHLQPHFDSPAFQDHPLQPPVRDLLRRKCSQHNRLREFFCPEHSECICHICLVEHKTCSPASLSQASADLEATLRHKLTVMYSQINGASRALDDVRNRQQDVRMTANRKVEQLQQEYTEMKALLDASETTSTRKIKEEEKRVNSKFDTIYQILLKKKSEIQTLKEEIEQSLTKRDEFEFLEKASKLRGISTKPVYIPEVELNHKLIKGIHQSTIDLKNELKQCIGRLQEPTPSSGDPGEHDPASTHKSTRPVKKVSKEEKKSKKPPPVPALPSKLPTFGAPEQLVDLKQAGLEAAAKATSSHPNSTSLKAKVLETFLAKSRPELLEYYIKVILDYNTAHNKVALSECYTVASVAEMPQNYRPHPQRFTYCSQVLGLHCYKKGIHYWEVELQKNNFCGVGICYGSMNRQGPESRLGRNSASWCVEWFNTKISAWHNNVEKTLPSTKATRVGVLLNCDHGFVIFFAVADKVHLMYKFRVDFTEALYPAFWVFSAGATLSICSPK

Legend:
Assay in all cases: log2 fold change, soluble protein after heating vs DMSO (PISA); higher = thermal stabilisation; K562 lysate, 10 uM; active = over 0.2 and 3.5 SD of the protein, either way, in both replicates (recomputed)
alvocidib = compound: CN1CC[C@H](c2c(O)cc(O)c3c(=O)cc(-c4ccccc4Cl)oc23)[C@H](O)C1 [alvocidib]
Procedure, shortened: (§1)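 Dounce homogenisation of K562 pellets in PBS pH 7.4 with 1 mM MgCl2 produced a crude extract, used at 1 mg/mL protein. Exposure to 10 μM compound lasted 30 min, and aliquots were then heated for 3 min across 48°C-58°C, pooled and brought to 0.5% NP-40 at 4°C. The supernatant after 21,000xg for 90 min was quantified by TMTpro 16plex LC-MS/MS with channel sums equalised. Duplicate values are given as log-two fold change in thermal stability relative to solvent controls.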

Tubastatin A = compound: CN1CCc2c(c3ccccc3n2Cc2ccc(C(=O)NO)cc2)C1 [Tubastatin A]
Procedure, shortened: as §1

[1] = compound: CNC(=O)C1=CC=CC=C1NC2=NC(=NC=C2Cl)NC3=C(C=C(C=C3)N4CCOCC4)OC
Procedure, shortened: as §1

defactinib = compound: CNC(=O)c1ccc(Nc2ncc(C(F)(F)F)c(NCc3nccnc3N(C)S(C)(=O)=O)n2)cc1 [defactinib]
Procedure, shortened: as §1

[2] = compound: CNc1nc(-c2ccc3c(N)n[nH]c3c2)cc(N2C[C@@H](C(=O)NC3CCCCC3)CC[C@H]2C)n1
Procedure, shortened: as §1

encorafenib = compound: COC(=O)N[C@@H](C)CNc1nccc(-c2cn(C(C)C)nc2-c2cc(Cl)cc(NS(C)(=O)=O)c2F)n1 [encorafenib]
Procedure, shortened: as §1

[3] = compound: COC(=O)[C@H](CCSC)NC(=O)C1=C(C=C(C=C1)NC[C@H](CS)N)C2=CC=CC=C2
Procedure, shortened: as §1

alisertib = compound: COc1cc(Nc2ncc3c(n2)-c2ccc(Cl)cc2C(c2c(F)cccc2OC)=NC3)ccc1C(=O)O [alisertib]
Procedure, shortened: as §1

[4] = compound: COc1cc2nc(-c3cc(F)ccc3O)nc(N[C@@H]3CNC[C@H]3C(C)(C)O)c2cc1OC
Procedure, shortened: as §1

gefitinib = compound: COc1cc2ncnc(Nc3ccc(F)c(Cl)c3)c2cc1OCCCN1CCOCC1 [gefitinib]
Procedure, shortened: as §1

lapatinib = compound: CS(=O)(=O)CCNCc1ccc(-c2ccc3ncnc(Nc4ccc(OCc5cccc(F)c5)c(Cl)c4)c3c2)o1 [lapatinib]
Procedure, shortened: as §1

pictilisib = compound: CS(=O)(=O)N1CCN(Cc2cc3nc(-c4cccc5[nH]ncc45)nc(N4CCOCC4)c3s2)CC1 [pictilisib]
Procedure, shortened: as §1

crizotinib = compound: C[C@@H](Oc1cc(-c2cnn(C3CCNCC3)c2)cnc1N)c1c(Cl)ccc(F)c1Cl [crizotinib]
Procedure, shortened: as §1

[5] = compound: C[C@H](C1=CC=C(C=C1)C(=O)NC2=C3C=CNC3=NC=C2)N
Procedure, shortened: as §1

duvelisib = compound: C[C@H](Nc1ncnc2nc[nH]c12)c1cc2cccc(Cl)c2c(=O)n1-c1ccccc1 [duvelisib]
Procedure, shortened: as §1

gandotinib = compound: Cc1cc(Nc2cc(CN3CCOCC3)c3nc(C)c(Cc4ccc(Cl)cc4F)n3n2)n[nH]1 [gandotinib]
Procedure, shortened: as §1

tozasertib = compound: Cc1cc(Nc2cc(N3CCN(C)CC3)nc(Sc3ccc(NC(=O)C4CC4)cc3)n2)n[nH]1 [tozasertib]
Procedure, shortened: as §1

doramapimod = compound: Cc1ccc(-n2nc(C(C)(C)C)cc2NC(=O)Nc2ccc(OCCN3CCOCC3)c3ccccc23)cc1 [doramapimod]
Procedure, shortened: as §1

bafetinib = compound: Cc1ccc(NC(=O)c2ccc(CN3CC[C@H](N(C)C)C3)c(C(F)(F)F)c2)cc1Nc1nccc(-c2cncnc2)n1 [bafetinib]
Procedure, shortened: as §1

[6] = compound: Cc1cccc(CC(=O)N2CCc3c2ccc(-c2cn(C)c4ncnc(N)c24)c3F)n1
Procedure, shortened: as §1

Measured: log2 fold change

TRAF2 isoform 2 (UniProt Q12933)
inactive: alvocidib -0.006 | Tubastatin A -0.006 | [1] 0.025 | defactinib -0.013 | [2] 0.01 | encorafenib 0.004 | [3] -0.198 | alisertib 0.003 | [4] -0.007 | gefitinib -0.04 | lapatinib -0.032 | pictilisib 0.004 | crizotinib -0.032 | [5] -0.047 | duvelisib 0.006 | gandotinib -0.045 | tozasertib 0.007 | doramapimod 0.005 | bafetinib -0.011 | [6] 0.053

TRAF6 (UniProt Q9Y4K3)
inactive: alvocidib 0.026 | Tubastatin A -0.003 | [1] 0.017 | defactinib 0.026 | [2] -0.01 | encorafenib 0.015 | [3] -0.041 | alisertib -0.01 | [4] 0.029 | gefitinib 0.011 | lapatinib -0.038 | pictilisib -0.013 | crizotinib -0.034 | [5] 0.087 | duvelisib -0.037 | gandotinib -0.052 | tozasertib -0.013 | doramapimod 0.025 | bafetinib 0.055 | [6] -0.031

TRIM24 (UniProt O15164)
inactive: alvocidib -0.008 | Tubastatin A -0.072 | [1] 0.109 | defactinib 0.021 | [2] -0.143 | encorafenib 0.059 | [3] 0.056 | alisertib -0.02 | [4] 0.019 | gefitinib -0.018 | lapatinib -0.011 | pictilisib -0.036 | crizotinib -0.026 | [5] 0.02 | duvelisib 0.032 | gandotinib -0.102 | tozasertib 0.05 | doramapimod -0.012 | bafetinib -0.072 | [6] -0.012

TRAPPC2 isoform 3 (UniProt P0DI81)
inactive: alvocidib 0.011 | Tubastatin A -0.024 | [1] 0.043 | defactinib -0.042 | [2] -0.137 | encorafenib 0.004 | [3] -0.065 | alisertib -0.071 | [4] -0.022 | gefitinib 0.034 | lapatinib 0.031 | pictilisib -0.142 | crizotinib 0.023 | [5] -0.008 | duvelisib 0.054 | gandotinib -0.113 | tozasertib 0.018 | doramapimod 0.066 | bafetinib 0.075 | [6] 0.032

TRMT5 (UniProt Q32P41)
inactive: alvocidib 0.019 | Tubastatin A -0.176 | [1] 0.027 | defactinib -0.049 | [2] -0.046 | encorafenib -0.003 | [3] 0.216 | alisertib 0.035 | [4] 0.009 | gefitinib -0.022 | lapatinib -0.003 | pictilisib -0.043 | crizotinib -0.079 | [5] -0.002 | duvelisib 0.003 | gandotinib -0.038 | tozasertib 0.018 | doramapimod 0.041 | bafetinib 0.01 | [6] 0.042

2 consecutive records already listed:
TRAF6 (UniProt Q9Y4K3)
inactive: alvocidib 0.026 | Tubastatin A -0.003 | [1] 0.017 | defactinib 0.026 | [2] -0.01 | encorafenib 0.015 | [3] -0.041 | alisertib -0.01 | [4] 0.029 | gefitinib 0.011 | lapatinib -0.038 | pictilisib -0.013 | crizotinib -0.034 | [5] 0.087 | duvelisib -0.037 | gandotinib -0.052 | tozasertib -0.013 | doramapimod 0.025 | bafetinib 0.055 | [6] -0.031

TRIM24 (UniProt O15164)
inactive: alvocidib -0.008 | Tubastatin A -0.072 | [1] 0.109 | defactinib 0.021 | [2] -0.143 | encorafenib 0.059 | [3] 0.056 | alisertib -0.02 | [4] 0.019 | gefitinib -0.018 | lapatinib -0.011 | pictilisib -0.036 | crizotinib -0.026 | [5] 0.02 | duvelisib 0.032 | gandotinib -0.102 | tozasertib 0.05 | doramapimod -0.012 | bafetinib -0.072 | [6] -0.012

Remaining list, next part.

TRIM23 (UniProt P36406)
active: gandotinib 0.372
inactive: alvocidib -0.071 | Tubastatin A 0.023 | [1] 0.017 | defactinib -0.008 | [2] 0.354 | encorafenib -0.063 | [3] 0.06 | alisertib -0.014 | [4] 0.154 | gefitinib 0.057 | lapatinib -0.063 | pictilisib -0.12 | crizotinib -0.003 | [5] -0.235 | duvelisib 0.134 | tozasertib 0.026 | doramapimod 0.01 | bafetinib -0.088 | [6] 0.297

TRAM1 (UniProt Q15629)
inactive: alvocidib 0.046 | Tubastatin A -0.099 | [1] -0.056 | defactinib 0.156 | [2] -0.049 | encorafenib 0.056 | [3] -0.058 | alisertib 0.017 | [4] -0.007 | gefitinib -0.02 | lapatinib -0.187 | pictilisib 0.037 | crizotinib -0.122 | [5] -0.052 | duvelisib -0.064 | gandotinib -0.324 | tozasertib 0.04 | doramapimod -0.086 | bafetinib -0.067 | [6] 0.126

TRAPPC6B (UniProt Q86SZ2)
inactive: alvocidib -0.002 | Tubastatin A 0 | [1] 0.019 | defactinib -0.02 | [2] -0.002 | encorafenib -0.025 | [3] 0.025 | alisertib 0.027 | [4] 0.002 | gefitinib -0.046 | lapatinib 0.008 | pictilisib 0.037 | crizotinib 0.047 | [5] -0.028 | duvelisib -0.001 | gandotinib 0.001 | tozasertib -0.006 | doramapimod -0.042 | bafetinib -0.092 | [6] 0.074

TRMT12 (UniProt Q53H54)
inactive: alvocidib -0.022 | Tubastatin A -0.106 | [1] -0.113 | defactinib -0.058 | [2] 0.007 | encorafenib 0.041 | [3] 0.088 | alisertib -0.031 | [4] 0.018 | gefitinib 0.123 | lapatinib 0.064 | pictilisib -0.02 | crizotinib -0.03 | [5] -0.289 | duvelisib 0.055 | gandotinib -0.054 | tozasertib -0.021 | doramapimod 0.059 | bafetinib -0.021 | [6] 0.14

TRAF4 (UniProt Q9BUZ4)
inactive: alvocidib 0.151 | Tubastatin A 0 | [1] 0.049 | defactinib 0.201 | [2] 0.053 | encorafenib -0.029 | [3] -0.047 | alisertib -0.007 | [4] 0.154 | gefitinib -0.054 | lapatinib -0.142 | pictilisib -0.016 | crizotinib -0.086 | [5] 0.028 | duvelisib -0.057 | gandotinib -0.274 | tozasertib -0.164 | doramapimod -0.016 | bafetinib -0.229 | [6] -0.134

TRMT10C (UniProt Q7L0Y3)
inactive: alvocidib 0.041 | Tubastatin A -0.086 | [1] 0.043 | defactinib -0.048 | [2] -0.007 | encorafenib -0.014 | [3] 0.033 | alisertib 0 | [4] -0.009 | gefitinib -0.013 | lapatinib -0.012 | pictilisib 0.026 | crizotinib -0.007 | [5] 0.015 | duvelisib 0.037 | gandotinib -0.064 | tozasertib 0.039 | doramapimod 0.034 | bafetinib 0.057 | [6] -0.016

TSFM (UniProt P43897)
inactive: alvocidib 0.036 | Tubastatin A -0.088 | [1] 0.017 | defactinib 0.015 | [2] 0.01 | encorafenib -0.017 | [3] 0.13 | alisertib -0.021 | [4] 0.017 | gefitinib 0.018 | lapatinib 0.003 | pictilisib -0.007 | crizotinib -0.056 | [5] 0.012 | duvelisib 0.025 | gandotinib -0.122 | tozasertib 0.047 | doramapimod 0.06 | bafetinib -0.026 | [6] -0.034

TRMT13 (UniProt Q9NUP7)
inactive: alvocidib -0.014 | Tubastatin A -0.003 | [1] 0.095 | defactinib -0.027 | [2] -0.011 | encorafenib 0.061 | [3] -0.006 | alisertib -0.015 | [4] 0.013 | gefitinib 0.029 | lapatinib -0.015 | pictilisib -0.018 | crizotinib -0.011 | [5] 0.022 | duvelisib 0.041 | gandotinib -0.058 | tozasertib -0.041 | doramapimod 0.072 | bafetinib -0.004 | [6] 0.119

TROAP (UniProt Q12815)
inactive: alvocidib -0.042 | Tubastatin A -0.043 | [1] 0.022 | defactinib 0.021 | [2] 0.076 | encorafenib -0.193 | [3] 0.217 | alisertib -0.09 | [4] -0.171 | gefitinib -0.015 | lapatinib 0.001 | pictilisib -0.088 | crizotinib 0.038 | [5] -0.065 | duvelisib -0.095 | gandotinib 0.072 | tozasertib -0.009 | doramapimod -0.008 | bafetinib -0.1 | [6] 0.004

TRIM25 (UniProt Q14258)
inactive: alvocidib 0.022 | Tubastatin A -0.04 | [1] 0.009 | defactinib -0.009 | [2] 0.042 | encorafenib -0.011 | [3] -0.058 | alisertib -0.01 | [4] -0.002 | gefitinib -0.029 | lapatinib 0.009 | pictilisib -0.031 | crizotinib 0.1 | [5] 0.031 | duvelisib -0.021 | gandotinib 0 | tozasertib 0.03 | doramapimod -0.036 | bafetinib -0.012 | [6] -0.038

TRIM33 (UniProt H0Y612)
inactive: alvocidib -0.081 | Tubastatin A -0.034 | [1] 0.119 | defactinib -0.007 | [2] 0.075 | encorafenib 0.014 | [3] 0.122 | alisertib -0.006 | [4] 0.09 | gefitinib -0.102 | lapatinib -0.078 | pictilisib 0.044 | crizotinib 0.004 | [5] -0.093 | duvelisib 0.012 | gandotinib 0.019 | tozasertib 0.07 | doramapimod 0.001 | bafetinib -0.077 | [6] 0.039
